Experimental data published in paper PMC10177380, “Versatile Platinum(IV) Prodrugs of Naproxen and Acemetacin as Chemo-Anti-Inflammatory Agents” (Cancers, 2023).

Columns and labels:
A431 skin = test: MTT growth inhibition, 72 h, A431; format: cell-based; details: Homo sapiens, A-431
[1] = Selectivity cytotoxicity index (GI50 in MCF10A/GI50 in Du145); details: human, MCF10A normal breast cells and Du145 prostate cancer cells

COc1ccc2cc([C@H](C)C(=O)O)ccc2c1 [NPX, naproxen]
GI50 (A431 skin): > 50 µM
selectivity ratio [1]: 1
